PubChem BioAssay AID1508600 (Functional Genomics Laboratory (NCATS/FGL), 2020)
In all, about 53,000 sequences went through this assay and about 3,700 (7%) were called active.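 How the source made its calls: active means gene knockdowns whose robust z-score for IL-1 alpha signal is at least 2 or at most -2, so actives lie on both sides; inactive means the rest.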 Some of the results follow.

test: Components of the Cytosolic LPS Sensing Pathway: Gene Identification via Genome-wide siRNA Screen; details: RAW264.7 macrophages, IL-1a HTRF, actives lie on both sides, screened at 100 nM (by protocol), cells primed 5 h with Pam3CSK4 first;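 further: robust z of the log signal after scaling to non-targeting control siRNA wells of the plate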
How it was run: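 RAW264.7; siRNA 100 nM final, RNAiMAX, 48h 37 degrees C; Pam3CSK4 5 h; LipidA + TransIT-TKO 24 h; IL-1a HTRF; CellTiter-Glo viability; robust z vs negative-control median.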

z-score, active:
GCUACUCAGUCUUUACUAUTT against Telo2 -2.14
GGAACAAUUGUUCCUGUGATT against Kcne1 -2.04
GGUAUAAGGAUUCUUUGAATT against Alg13 -2.8
GGCCCAACACCUUUAUCAUTT against Akt1 2.77

z-score, inactive:
GGUAGUGAAUGAACUCUUUTT against Bcl2l1 -1.41
GGUUCUACUGGAGUCCUGGTT against Cd6 -1
GGUUAGGUCUAACCAUUGATT against A630005I04Rik 0.639
GGUGGAAAACAACACCUUATT against Tarsl2 0.755
GCCUCCAUUUCUUGGACGATT against Mpg -0.627
GGAAACCAAGAUUUCUCAGTT against Tyro3 -0.405
GGCUGUGCAUUAUAUCCUUTT against Lhfpl1 1.2
GGCCUCUUUGGAUCUAAGCTT against Nupl1 0.78
GCAACCAUCGAACUCAAGGTT against Smarca4 1.08
GGAAGUCUCCUACAAUGCCTT against Paxip1 0.12
CGAGAUUUGUAACAAGUCATT against Dr1 -1.5
GCGACGAAGAUGUCCUGUUTT against Plxna2 -1.75
GCUGAGCCGUGAGUUCAAUTT against Trp63 0.372
GCCAUCUUAAGUUGUAACUTT against Fgfr3 0.417
GGAUCCUUCAGCAUUCUUATT against Egr2 -0.476
CGUUCCAAGGGAGAACACATT against Dab1 1.08
GGACUCGUUCCACUAUCAUTT against Naa20 0.33
CCUCGAAUUUCAAUAUGCUTT against Ncam1 -0.672
GGCUCUGAAUAGUGGGCUGTT against Olfr974 0.521
GGUAUUAACUUUGACAAUCTT against Ncoa5 -0.456
GGAGUUUCUGGUGUGAUCCTT against Fkbp9 0.341
GGUUAAGGAGAAAUGUGAUTT against Mob3a -0.0804
CCUACUCGUAUAAUCUUCUTT against Ago3 0.496
GGCAGUGAAAGCAAAGCUGTT against Cldn7 -1.87
AUGCCUAUACAAUUCUGUGTT against Olfr1167 0.0339
GCAGUUACACAUUUGAACATT against Msantd2 1.62
GGUGGACACAGCUUAAAGCTT against Vmn1r237 0.0057
GGACAUUUUGAACUGUUAUTT against Pkd2l1 0.263
GGAGAAAAAGAGAUAAGGUTT against Ppp2r2b -0.893
GGUUAGUCGACAGAAACAATT against Poteg -1.11
GGACAUUAUUUUCUUGUCATT against Skint3 -0.341
CCUUGACAACCAACAGAUUTT against Shc4 0.432
GGAAAUCGUGCGUGGCUACTT against Phpt1 1.57
GCACAAGCGAAGAAGUUUGTT against Ube2i -0.0933
GGACUGAGAAAACUCCAAATT against Hmgxb3 -0.446
UUCCAGAAACUACCUGUGCTT against Adcy1 0.694
GCCAAUUUUGAACCACUACTT against Itga8 -0.56
CCGACCAUCUGUGGAAAUATT against Samd5 0.227
GGAGAACCCAUGUAACUGUTT against Tcl1b1 0.11
CGUGUGUUCCGGAAACAGATT against Tnfrsf11b -0.188
GCCUUAGGAUACUACUGUUTT against Map3k3 -0.136
GGGUUCUCCAAUGCUUACATT against Mrps23 -0.534
GCGUAGAGUCCUUUCGUCUTT against Krt10 0.818
GCCACAUAGAUCGCAUGGUTT against Lox -0.766
CCUUAUUGUGACAGAAGUATT against Tnc -0.0884
GCUAAGAGUACAUUGUAACTT against Tmeff2 0.0631
GGCAUUAUCGUGGUUGGCATT against Ntpcr -1.97
GGAACAAUAUUGAUGAUGUTT against Pten -1.05
GGAGCAUGGUGUGUUGUGATT against Clec9a 0.0854
GGAUAGACAGAAAUUCUCATT against Flot1 1.43
CCACGUGUUUGCAUUCAAATT against Ano5 1.4
GGUAUUACAAGGUCAUAUCTT against Nol12 -0.357
CCUGACCUAAUCGAGAAUGTT against Speer2 -0.279
GGAGGAAAAAUGAAAAGUATT against Clpx 0.98
GCAGCAGUAAUAGUCAUACTT against Ccnj 0.801
GGGUUCAUUCUUAUGUAUGTT against Prr5l 0.35
CCGAUUUAAUCUCUUAGAATT against Ets2 0.9
GGUCAAUAUUGGCUUAUGUTT against Tmem42 -1.43
GGCGGAAAUGCAAAUGCAATT against Rpf2 0.202
CAUUGGUAUUGCCAAGGCATT against Olfr1330 0.373
GCAAGCUGUACGCCAAUGUTT against Champ1 1.73
GGAAGGGUCAGAAAAAUGUTT against Slc1a2 0.202
CCGUAAUCGCUGCUUCAUATT against Cideb 1.44
GGAAGGCCCUAGAAAGGACTT against Gm5094 0.209
GCCUAGAUACAGCUCCUUGTT against Clybl -0.111
GCAUACCUAGACUGAAAACTT against Rilpl2 -0.477
GGAGCUAAAGCUGCUGAUUTT against S100g -0.404
CCUUCUAGAGUACAUCAUATT against Prl7d1 0.298
CGGAUGAUCGAUUUAAAGUTT against Nol10 -0.00606
GCCUUCAUCAAAAAACACUTT against Txndc2 -0.0169
GCACGAGGAUGUGAUAUUCTT against Txndc2 -0.65
CCGAGAACCGAACUUACCATT against Fam168a 1.3
CCUAUCAACCUAAACUCCATT against Car8 -0.459
GGCUUUAGGGAGUUGCUUCTT against Pacrgl -1.07
GCAUAUUUCUAAGCUGCAUTT against Qdpr -0.439
GGACCACCAUUGUGAUCCATT against Kcnk2 0.808
GGAUAGUAACGGAAACUUGTT against Usp25 -0.21
GGAAGAACUCUCAGAAAAATT against Txk 0.399
GUUUAAAACCUAUGGCAUCTT against Rps21 0.374
GGGCAUCAGCUAUUAAAGATT against Tpmt 0.488
GGAAAUGACAUCUUCCUUGTT against Rnf135 -0.265
GGACUAAGCAGACCAUACATT against Tigar -0.759
CCAGUAACCAGUGCAAUCATT against Tnp2 -0.751
GGUCACUUGGAAUUUGUAATT against Gata6 1.2
GUGGACUUCUUCCUGUUGGTT against Dolk -0.784
GGAAAAAGAUCUUGGAAGUTT against Rwdd2a 0.279
GGAAAUCAGUGUCUUUUACTT against Sumf1 1.03
GCACAUAAAAUGCUCACUGTT against Rgr -0.084
GGGAAAGUUUUGUUCUGUATT against Ezr 0.31
CCAAGUAUAGCUAUGCACATT against 4833432P19Rik -0.374
GCUGCAUUCAGUGAAGAUCTT against Lgals7 -0.635
GGAGCUACCUAUCCUUUGUTT against Brinp1 0.0902
CCAAAGGUGUGUGAUACUGTT against Fam241b 0.286
GGAAGAAGCAAAGAACUAUTT against Spg20 0.552
GGGCUUUCAAAGAUGAAAUTT against Mas1 -0.214
GCUUACAGCAAGAUCAAGGTT against Pip4k2b -0.21
GGAAGUUCCUCUCUACUUATT against Col8a2 -0.126
AUCAAGGUUAUGCAUAACUTT against 3110053B16Rik -0.0251
GGAAGUGCCACCUGUAUUATT against Tbc1d2 -0.564
GGUUUGAAAUAUUGUGGAUTT against Spdye4b -1.23
GGUGAGAAGGAUUUGUAAATT against Clec4d -0.0352
GGCUGGAUGUCAGAUUGCATT against Olfr1389 -1.38
GGAAAUCAAAGCUUUUGAGTT against Plaa 0.494

Random excerpt: 4 records from the list, in no set order.
z-score, inactive:
GCCUUCAUCAAAAAACACUTT against Txndc2 -0.0169
GCAUAUUUCUAAGCUGCAUTT against Qdpr -0.439
GCUGAGCCGUGAGUUCAAUTT against Trp63 0.372
GCCAUCUUAAGUUGUAACUTT against Fgfr3 0.417

A run of entries from further up:
z-score, inactive:
GGAGGAAAAAUGAAAAGUATT against Clpx 0.98
GCAGCAGUAAUAGUCAUACTT against Ccnj 0.801
GGGUUCAUUCUUAUGUAUGTT against Prr5l 0.35
CCGAUUUAAUCUCUUAGAATT against Ets2 0.9
